{"source": "PubChem BioAssay AID493014", "about": "(National Center for Advancing Translational Sciences (NCATS), 2011)", "note": "In all, about 340,000 compounds went through this assay and about 170 (0.05%) were called active. Inconclusive means that the source gave no clear call. Such entries were picked first, then a sample of the others. The call rests on the fitted dose curve; in most records, active means well fitted inhibition curve with a large enough effect in the signal ratio, with a control signal flat (not every such curve was filed as active); inconclusive means small, poorly fitted or top-dose-only effect, or effect the other way, or a change in a side signal; inactive means flat fitted curve, though single readings scatter; the % refers to the signal ratio. A potency beside an inconclusive call is a rough fit, not a confirmed value. Potency means the concentration at half of the fitted maximal effect.", "data": [{"assay": "qHTS Assay to Find Inhibitors of Chronic Active B-Cell Receptor Signaling;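 on activity change, negative = inhibition: plate controls were basal doxycycline-induced cells for no effect and cells given 10 µM MG132 for full effect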", "conditions": "ABC-DLBCL IkBa-CBG/CBR reporter, luminescence ratio (green luciferase fused to IkBa over red control in TMD8 lymphoma cells), 4 h; activity change, negative = inhibition: at 46.1 µM (top of the series)", "procedure,_shortened": "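Cell line TMD8 (human ABC DLBCL), stably expressing tet-inducible CBG68-IkBa fusion and CBR; IMDM/0.5% FBS; cpd up to 46 uM; dox induction, 4 h, 37C/5% CO2; dual luminescence; green/red ratio; MG132 control.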", "values": [{"smiles": "CCN(CC(=O)Nc1c(F)cccc1F)C(=O)/C=C/c1ccc2c(c1)OCO2", "Potency": "inconclusive: 10.3 µM [falling, partial curve, poor fit]"}, {"smiles": "Cc1ccc2cc(C=O)c(N3CCOCC3)nc2c1C", "activity change, negative = inhibition": "inconclusive: 3.14%"}, {"smiles": "COc1cc2c(cc1NC(=O)CSc1nc3ccccc3[nH]1)oc1ccccc12", "activity change, negative = inhibition": "inconclusive: 11.6%"}, {"smiles": "COc1ccc(NC(=O)c2ccc3c(c2)OCO3)cc1Cl", "activity change, negative = inhibition": "inconclusive: -15.5%"}, {"smiles": "COCCCNC(=O)c1cc(C(=O)c2c(-c3c(Cl)cccc3Cl)noc2C)c[nH]1", "activity change, negative = inhibition": "inconclusive: -1.18%"}, {"smiles": "O=C(NN1C(=O)C2C3C=CC(C4CC34)C2C1=O)c1ccc(Cl)cc1", "note": "(configuration not stated)", "activity change, negative = inhibition": "inconclusive: 4.39%"}, {"smiles": "O=C(CC(Nc1ccc(Cl)cc1)C(=O)O)c1ccccc1", "note": "(configuration not stated)", "Potency": "inconclusive: 23.1 µM [falling, partial curve]"}, {"smiles": "O=C(/C=C/c1ccccc1)NCCc1ccccc1", "Potency": "inconclusive: 14.1 µM [falling, single point]"}, {"smiles": "CCOC(=O)C1=C(C)NC2=C(C(=O)CC(C)(C)C2)C1c1ccc(N(C)C)cc1", "note": "(configuration not stated)", "activity change, negative = inhibition": "inconclusive: 3.38%"}, {"smiles": "CCOC(=O)c1cccc(NC(=O)CCn2c(-c3ccc(F)cc3)cc(C(=O)OCC)c2C)c1", "activity change, negative = inhibition": "inconclusive: 1.53%"}, {"smiles": "CCc1ccc2nc(SCC(=O)Nc3nnc(C)s3)c(C)cc2c1", "activity change, negative = inhibition": "inactive"}, {"smiles": "N#Cc1ccc(/C=C/C(=O)c2ccccc2)cc1", "Potency": "inconclusive: 35.5 µM [falling, single point]"}, {"smiles": "O=C(O)c1ccc(Nc2nc3c(s2)CCCC3)cc1", "Potency": "inconclusive: 5.01 µM [falling, partial curve]"}, {"smiles": "CCCCN(C)C(=O)CS(=O)(=O)Cc1nc(-c2cccc(OC)c2)oc1C", "activity change, negative = inhibition": "inactive"}, {"smiles": "COc1cc(-c2cc(C(=O)NCCc3ccc(S(N)(=O)=O)cc3)c3ccccc3n2)cc(OC)c1OC", "activity change, negative = inhibition": "inconclusive: 4.16%"}, {"smiles": "CSc1nc(-c2ccco2)nn1C(=O)c1cccs1", "activity change, negative = inhibition": "inactive"}, {"smiles": "CCOC(=O)C1(CCOc2ccccc2)CCN(Cc2cc(OC)c(O)c(OC)c2)CC1", "activity change, negative = inhibition": "inactive"}, {"smiles": "COc1ccc(N2CCN(S(=O)(=O)CCNS(=O)(=O)c3ccccc3)CC2)cc1", "activity change, negative = inhibition": "inconclusive: 4.16%"}, {"smiles": "COc1ccc(-c2cc(C(=O)Nc3cc(OC)c(OC)c(OC)c3)no2)cc1", "activity change, negative = inhibition": "inactive"}, {"smiles": "Cc1ccccc1NC(=O)Cn1nnc2c(cnn2-c2ccc(F)cc2)c1=O", "Potency": "inconclusive: 35.5 µM [falling, single point]"}, {"smiles": "CN(C)c1ccc(/C=N/NC(=O)c2ccc3nc[nH]c3c2)cc1", "Potency": "inconclusive: 28.2 µM [falling, single point]"}, {"smiles": "COc1ccc(Br)c(C(=O)NCC2CCCCC2)c1", "Potency": "inconclusive: 17.8 µM [falling, partial curve, poor fit]"}, {"smiles": "COC(=O)c1ccccc1NC(=O)NC1CCN(Cc2ccccc2)CC1", "activity change, negative = inhibition": "inconclusive: 7.62%"}, {"smiles": "CCc1ccc(Nc2ncccc2C#N)cc1", "activity change, negative = inhibition": "inactive"}, {"smiles": "O=S(=O)(Cc1ccccc1)NCCc1cccc(Cl)c1", "activity change, negative = inhibition": "inconclusive: 8.61%"}, {"smiles": "CCN1C(=O)[C@H]2[C@H]3CN=C(SCc4ccc(Cl)cc4)N3[C@@](CC)(C(=O)OC)[C@H]2C1=O", "activity change, negative = inhibition": "inconclusive: -9.3%"}, {"smiles": "COc1ccc(OC)c(-n2c(=S)[nH]c3cc(C(=O)N4CCN(c5ccccc5)CC4)ccc3c2=O)c1", "activity change, negative = inhibition": "inactive"}, {"smiles": "Cc1cccc(-c2ccc3ncnc(N(C)Cc4ccco4)c3c2)c1", "activity change, negative = inhibition": "inconclusive: 5.35%"}, {"smiles": "COCCCNC(=S)N/N=C/c1ccc(OC)c(Br)c1", "Potency": "inconclusive: 35.5 µM [falling, single point]"}, {"smiles": "COc1ccc(CC(NC(C)=O)C(=O)N2CCN(C(=O)N(C(C)C)C(C)C)CC2)cc1", "note": "(configuration not stated)", "activity change, negative = inhibition": "inconclusive: 9.53%"}, {"smiles": "COC(=O)c1ccccc1NC(=O)c1cc2sccc2n1C", "Potency": "inconclusive: 8.2 µM [falling, partial curve]"}, {"smiles": "O=C(COc1cccc(Br)c1)N/N=C1\\CCSC1", "activity change, negative = inhibition": "inactive"}, {"smiles": "O=C(Nc1cccc(C(F)(F)F)c1)Nc1ccon1", "activity change, negative = inhibition": "inconclusive: -0.729%"}, {"smiles": "CC(C)(C(=O)Nc1nccs1)c1ccccc1", "activity change, negative = inhibition": "inconclusive: 3.12%"}, {"smiles": "Cc1nn(-c2ccccc2)c(C)c1NC(=O)c1ccc(S(=O)(=O)N2CCCC2)cc1", "activity change, negative = inhibition": "inconclusive: -0.711%"}, {"smiles": "CCOC(=O)CCNC(=O)c1ccc2nc(C3CCCCC3)oc2c1", "activity change, negative = inhibition": "inconclusive: 3.06%"}, {"smiles": "CN(C)c1ccc(N2CN=C3SCC(=O)N3C2)cc1", "Potency": "inconclusive: 11.2 µM [falling, partial curve]"}, {"smiles": "CC(C)OCCCNC1=C(Cl)C(=O)c2ccccc2C1=O", "activity change, negative = inhibition": "inconclusive: 24.1%"}, {"smiles": "CC(=O)C1=C(c2ccccc2)NC(=O)NC1c1cccs1", "note": "(configuration not stated)", "activity change, negative = inhibition": "inconclusive: 0.611%"}, {"smiles": "CS(=O)(=O)c1ccc2nc(NC(=O)c3ccc(Cl)nc3)sc2c1", "Potency": "inconclusive: 22.4 µM [falling, single point]"}, {"smiles": "Cc1cccc(NC(=S)NNC(=O)c2sccc2C)c1", "Potency": "inconclusive: 2.59 µM [falling, partial curve, poor fit]"}, {"smiles": "O=C(CSc1ccc(-c2ccccn2)nn1)N1CCCC1", "activity change, negative = inhibition": "inactive"}, {"smiles": "CCOC(=O)c1cc2c(=O)n3ccccc3nc2n(Cc2ccco2)c1=NC(=O)c1cccc(OC)c1", "activity change, negative = inhibition": "inconclusive: 11.8%"}, {"smiles": "N#Cc1ccccc1S(=O)(=O)N1CCNS(=O)(=O)c2ccccc21", "activity change, negative = inhibition": "inconclusive: -1.08%"}, {"smiles": "CCN1c2ccccc2-c2nc3ccccc3n2C1c1cccs1", "note": "(configuration not stated)", "activity change, negative = inhibition": "inconclusive: -16.3%"}, {"smiles": "COc1cc2ccccc2cc1C(=O)Nc1ccc(Cc2ccncc2)cc1", "Potency": "inconclusive: 20.6 µM [falling, partial curve]"}, {"smiles": "c1ccc(Nc2nn[nH]n2)cc1", "activity change, negative = inhibition": "inconclusive: 8.66%"}, {"smiles": "O=[N+]([O-])c1cccnc1SCc1ccccc1", "activity change, negative = inhibition": "inconclusive: 0.0678%"}, {"smiles": "CC(C)c1ccc(NC(=O)COc2nnc(-c3cccs3)c(-c3cccs3)n2)cc1", "activity change, negative = inhibition": "inconclusive: -5.27%"}, {"smiles": "Cc1cccc(C(=O)NCCc2ccccc2)c1", "Potency": "inconclusive: 15.8 µM [falling, partial curve]"}, {"smiles": "CCN(CC)C(=O)c1sc(NC(=O)c2c(OC)cccc2OC)c(C#N)c1C", "activity change, negative = inhibition": "inconclusive: -2.57%"}, {"smiles": "O=C(O)C1CC=CCC1C(=O)NC1CCCCC1", "note": "(configuration not stated)", "activity change, negative = inhibition": "inconclusive: -160%"}, {"smiles": "CCOc1ccccc1NC(=O)COC(=O)CN1C(=O)NC(C)(C)C1=O", "activity change, negative = inhibition": "inactive"}, {"smiles": "COc1ccc(C2=NN(CC(=O)NCCc3ccc(OC)c(OC)c3)C(=O)CC2)cc1", "activity change, negative = inhibition": "inconclusive: -7.22%"}, {"smiles": "O=c1c(-c2ccco2)[n+]([O-])c2ccccc2n1OCc1c(F)cccc1F", "activity change, negative = inhibition": "inconclusive: 3.31%"}, {"smiles": "O=c1cc(-c2ccccc2Cl)oc2c([N+](=O)[O-])c(O)cc(O)c12", "activity change, negative = inhibition": "inconclusive: 10.9%"}, {"smiles": "Cc1ccccc1-c1nnc(SCc2ccccc2)o1", "activity change, negative = inhibition": "inconclusive: 1.43%"}, {"smiles": "COc1ccc(Br)cc1CN(C)C(C)C(=O)Nc1cccc(C(C)=O)c1", "note": "(configuration not stated)", "activity change, negative = inhibition": "inconclusive: 11.6%"}, {"smiles": "COC(CNC(=O)CCc1c(C)nc2c(c(C)nn2-c2ccc(C)cc2)c1C)OC", "activity change, negative = inhibition": "inconclusive: 0.544%"}, {"smiles": "COc1ccc(-c2nc3ccc(N4CCCC4)cc3c(=O)[nH]2)cc1OC", "activity change, negative = inhibition": "inconclusive: -11%"}, {"smiles": "CCOc1ccc(NC(=O)CSc2nnc(C3CC3)n2C2CC2)cc1", "activity change, negative = inhibition": "inconclusive: 1.85%"}, {"smiles": "COc1ccc(Cc2nnc(NS(=O)(=O)c3ccc(Cl)cc3)s2)cc1OC", "Potency": "inconclusive: 35.5 µM [falling, partial curve, poor fit]"}, {"smiles": "Nc1nccc(/C=C/c2c(Cl)cccc2Cl)n1", "Potency": "inconclusive: 25.1 µM [falling, single point]"}, {"smiles": "COc1ccc(C[C@H]2CN3C(=NC[C@@H]3Cc3ccccc3)N2CCNC(=O)CCC2CCCCC2)cc1", "activity change, negative = inhibition": "inconclusive: -21.8%"}, {"smiles": "Cn1c(=O)[nH]c(=O)c2c1nc([N+](=O)[O-])n2Cc1ccccc1", "Potency": "inconclusive: 6.31 µM [falling, single point]"}, {"smiles": "Cc1c(C)c2ccc(OCc3ccc(C(=O)O)o3)c(C)c2oc1=O", "Potency": "inconclusive: 5.62 µM [rising, single point]"}, {"smiles": "CC(=O)Nc1sc(-c2ccc(Cl)cc2)nc1-c1ccccc1", "activity change, negative = inhibition": "inconclusive: -2.07%"}, {"smiles": "C/C(=N\\Nc1ccc2nncn2n1)c1ccccn1", "activity change, negative = inhibition": "inactive"}, {"smiles": "O=C(NCCc1csc(-c2ccccc2)n1)c1c(F)cccc1F", "activity change, negative = inhibition": "inconclusive: -0.164%"}, {"smiles": "N=c1ccn(CC(=O)c2ccc(-c3ccccc3)cc2)cc1", "Potency": "inconclusive: 35.5 µM [falling, single point]"}, {"smiles": "CC(=O)Nc1ccc(CN2CCN(C3CCCC3)C(CCO)C2)cc1", "note": "(configuration not stated)", "activity change, negative = inhibition": "inactive"}, {"smiles": "COC(=O)c1c(NC(=O)c2ccc(C)cc2)csc1C", "activity change, negative = inhibition": "inconclusive: 8.03%"}, {"smiles": "Cc1ccc(-c2nc3sc(CCNC(=O)c4ccc(Br)o4)c(C)n3n2)cc1", "activity change, negative = inhibition": "inconclusive: -15%"}, {"smiles": "Cc1noc(NS(=O)(=O)c2ccc(NC(=O)C34CC5CC(C3)CC(n3cnc(Br)n3)(C5)C4)cc2)c1C", "activity change, negative = inhibition": "inconclusive: 0.363%"}, {"smiles": "COc1ccc(NC(=O)COc2ccc(-c3nn(C)c(=O)c4ccccc34)cc2)cc1", "activity change, negative = inhibition": "inconclusive: 5.93%"}, {"smiles": "COc1ccc(-c2noc(-c3cc(Cl)ccc3Cl)n2)cc1OC", "activity change, negative = inhibition": "inconclusive: 5.1%"}, {"smiles": "CC(=O)/C(=N\\Nc1ccccc1)Oc1ccc([N+](=O)[O-])cc1", "activity change, negative = inhibition": "inconclusive: 28.3%"}, {"smiles": "Cc1nn(-c2ccccc2)c2c1C1(C(=O)N3c4c(cccc41)C(C)CC3(C)C)C(C#N)=C(N)O2", "note": "(configuration not stated)", "Potency": "inconclusive: 5.8 µM [rising, full curve, poor fit]"}, {"smiles": "O=C(O)c1[nH]c2ccccc2c1C=NCc1ccccc1Cl", "activity change, negative = inhibition": "inconclusive: -23.2%"}, {"smiles": "CCCn1c(/C=N/Nc2nc3ccccc3[nH]2)nc2ccccc21", "activity change, negative = inhibition": "inactive"}, {"smiles": "O=C(Nc1ccccc1N1CCCC1)c1cc(Cl)ccc1Cl", "activity change, negative = inhibition": "inconclusive: 19.9%"}, {"smiles": "Cc1[nH][nH]c(=O)c1C(c1ccc(-c2ccc(Cl)cc2Cl)o1)c1c(C)[nH][nH]c1=O", "Potency": "inconclusive: 2.31 µM [falling, full curve]"}]}]}
